Source: publication PMC8948190
These are yes or no findings as the source states them, for the method shown. In cells and extracts the contact can be indirect. A yes stands for co-enrichment or nearness to the bait. Other partners may have been found.

Protein sequences, listed by entry. Tags and fused reporters are not part of them.
UniProt P09874: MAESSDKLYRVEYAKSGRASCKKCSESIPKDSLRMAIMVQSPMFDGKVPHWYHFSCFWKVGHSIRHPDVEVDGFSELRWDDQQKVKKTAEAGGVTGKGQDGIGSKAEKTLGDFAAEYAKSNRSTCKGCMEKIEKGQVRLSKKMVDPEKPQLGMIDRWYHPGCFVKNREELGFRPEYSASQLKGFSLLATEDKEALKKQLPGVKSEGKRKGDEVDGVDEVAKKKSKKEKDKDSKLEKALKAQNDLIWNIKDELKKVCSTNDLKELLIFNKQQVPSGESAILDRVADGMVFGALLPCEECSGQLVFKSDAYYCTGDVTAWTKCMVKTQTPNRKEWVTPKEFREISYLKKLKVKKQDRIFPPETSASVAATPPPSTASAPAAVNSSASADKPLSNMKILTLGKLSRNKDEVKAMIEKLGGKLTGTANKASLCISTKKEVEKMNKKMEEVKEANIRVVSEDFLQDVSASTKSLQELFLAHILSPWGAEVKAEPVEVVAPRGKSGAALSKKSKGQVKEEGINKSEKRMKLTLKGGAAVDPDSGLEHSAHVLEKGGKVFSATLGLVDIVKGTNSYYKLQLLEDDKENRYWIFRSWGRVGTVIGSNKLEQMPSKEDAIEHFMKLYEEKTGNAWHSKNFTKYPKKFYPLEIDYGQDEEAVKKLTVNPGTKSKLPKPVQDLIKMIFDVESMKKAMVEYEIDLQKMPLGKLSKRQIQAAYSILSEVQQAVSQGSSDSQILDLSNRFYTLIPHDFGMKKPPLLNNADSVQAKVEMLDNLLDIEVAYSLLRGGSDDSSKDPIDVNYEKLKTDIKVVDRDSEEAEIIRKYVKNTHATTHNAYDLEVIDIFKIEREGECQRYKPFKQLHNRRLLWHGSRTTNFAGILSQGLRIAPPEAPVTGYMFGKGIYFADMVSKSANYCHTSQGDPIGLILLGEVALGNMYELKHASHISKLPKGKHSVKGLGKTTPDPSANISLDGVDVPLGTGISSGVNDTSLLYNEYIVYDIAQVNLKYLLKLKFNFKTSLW

Target: T1, High-mobility group box 3 (HMGB3), endogenous (human (endogenous in A2780, SKOV3, UWB1.289)) (UniProt O15347)
T1 sequence: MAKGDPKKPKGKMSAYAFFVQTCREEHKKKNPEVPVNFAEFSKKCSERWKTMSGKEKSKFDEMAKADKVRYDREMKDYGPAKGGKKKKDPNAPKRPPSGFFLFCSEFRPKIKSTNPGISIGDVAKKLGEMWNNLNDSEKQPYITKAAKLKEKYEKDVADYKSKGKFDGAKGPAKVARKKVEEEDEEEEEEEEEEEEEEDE
Assay: affinity purification with mass spectrometry; UWB1.289 lysate (Western and IP Lysis Buffer) immunoprecipitated with anti-HMGB3 or anti-IgG; SDS-PAGE, gel pieces, LC-MS/MS

poly (ADP-ribose) polymerase 1 (PARP1), endogenous (from UniProt P09874 1-1014) (enzyme)
binding: binds
